Data published in PubChem BioAssay AID493014 (National Center for Advancing Translational Sciences (NCATS), 2011).
The list shows a part of the results. Shown are side measurements of this screen, not its main read-out; they come without a call. Compounds called inactive in the main read-out are mostly missing here. Potencies come from curve fits of mixed quality, noted in brackets.

Assay: qHTS Assay to Find Inhibitors of Chronic Active B-Cell Receptor Signaling
Settings: ABC-DLBCL IkBa-CBG/CBR reporter, luminescence ratio (green luciferase fused to IkBa over red control in TMD8 lymphoma cells), 4 h
In short: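 Doxycycline induced both beetle luciferases in TMD8 lymphoma cells; IKK-driven degradation limits the IkappaBalpha-fused green signal, while red luminescence normalises for cell number and nonspecific effects. Compounds tested up to 46 uM, 4 hrs.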

[1] = measured here: CBR red luminescence, cell number
[2] = measured here: IkBa-CBG green luminescence

SMILES	AC50 [1]	AC50 [2]
CCOC(=O)C(NCc1ccco1)(NC(=O)c1ccccc1)C(F)(F)F (stereo not drawn)	29.1 µM [rising, single point]	–
Cc1ccc(N2C(=O)c3ccccc3C2C(=O)c2ccc(C)c(C)c2O)cc1 (stereo not drawn)	20 µM [falling, single point]	–
CCOc1ncccc1C(=O)Nc1ccc(Cl)cc1	3.26 µM [falling, partial curve, poor fit]	–
CCOC(=O)COc1ccc(S(=O)(=O)Nc2cccc(SC)c2)cc1	32.6 µM [rising, single point]	–
CC(C)(C)c1csc(NC(=O)CCc2ccccc2)n1	0.631 µM [rising, full curve, poor fit]	–
COc1ccc(C#Cc2c(C=O)n(C)c3ccccc23)cc1	20.6 µM [rising, partial curve]	–
COc1ccc(C2=CC(c3c(C)nn(-c4ccccc4)c3Cl)n3nnnc3N2)cc1OC (stereo not drawn)	1.26 µM [rising, partial curve, poor fit]	–
Cc1csc(=N)n1-c1ccc(Cl)cc1	2.82 µM [rising, partial curve, poor fit]	–
COc1ccc(NC(=O)c2sc3nc(C)nc(N4CCOCC4)c3c2C)c(OC)c1	15.8 µM [rising, single point]	–
COc1ccc(NC(=O)CSCc2ccccc2C)cc1	32.6 µM [rising, single point]	–
Cc1ccc(NC(=O)c2ccc(NC(=O)C3CCCCC3C(=O)O)cc2)cc1 (stereo not drawn)	35.5 µM [falling, single point]	–
CCCc1cc(=O)oc2cc(OCC(=O)NCc3cccs3)ccc12	5.8 µM [rising, partial curve]	–
CCOC(=O)c1cnc2c(ccc3ccccc32)c1N	0.112 µM [rising, full curve, poor fit]	–
N=c1n(CC(=O)c2ccc(Br)s2)c2ccccc2n1Cc1ccccc1	5.62 µM [falling, full curve, poor fit]	–
CCCN1Cc2cccc(C(=O)NCCCOC(C)C)c2C1=O	20.6 µM [rising, partial curve, poor fit]	–
O=C(CCc1ccccc1)NCCc1cccs1	15.8 µM [falling, single point]	–
CC(C)N1C(=O)CCC1C(=O)O (stereo not drawn)	20.6 µM [rising, partial curve, poor fit]	–
Cc1cc(=O)oc2cc(NC(=O)CC3(CC(=O)O)CCCC3)ccc12	12.6 µM [falling, partial curve]	–
CCC(=O)OCC(=O)c1c(N)n(Cc2ccccc2)c(=O)n(C)c1=O	7.08 µM [falling, full curve, poor fit]	–
COc1ccc(CCN=Cc2ccc(O)cc2)cc1OC	25.1 µM [rising, partial curve, poor fit]	–
COc1ccc(/C=N/Nc2nc(=O)[nH]nc2C)cc1OC	–	20 µM [falling, partial curve, poor fit]
Cc1ccc(S(=O)(=O)Nc2cc(=O)[nH]c(SCC(=O)Nc3cccc(C(F)(F)F)c3)n2)cc1	20 µM [rising, single point]	–

SMILES	AC50 [1]	AC50 [2]
CCOC(=O)N1CCN(C(=O)CCc2c(C)nc3c(c(C)nn3-c3ccc(C)c(C)c3)c2C)CC1	6.51 µM [rising, single point]	–
Cc1ccc(NC(=O)CN2CCCCC2)c2c1CC(C)(C)O2	35.5 µM [rising, single point]	–
Cc1cc2c(cc1C)CN(c1ccccc1)C2	0.501 µM [rising, partial curve, poor fit]	–
CCOC(=O)CCn1nnc(N)n1	0.731 µM [rising, partial curve, poor fit]	–
O=C1c2cc(Cl)ccc2OC2(CCNCC2)C12CC(c1ccccc1)=NO2 (stereo not drawn)	15.8 µM [falling, single point]	–
O=C(COc1ccc2ccccc2c1)Nc1ccc(S(=O)(=O)N2CCCCCC2)cc1	13 µM [rising, partial curve, poor fit]	–
COC(=O)c1cc(-c2c(C)oc3cc(O)ccc3c2=O)c(C)o1	20.6 µM [rising, single point]	–
O=c1c(-c2ccccc2)c1-c1ccccc1	11.2 µM [falling, partial curve]	–
CC(C)OC(=O)Cn1nnc2c(cnn2-c2ccccc2)c1=O	29.1 µM [falling, single point]	–
O=C1N(c2ccccc2)C(c2ccccc2)C12CCCCC2 (stereo not drawn)	5.17 µM [rising, partial curve, poor fit]	–
O=S(=O)(c1ccccc1)c1nc(-c2ccco2)oc1Nc1ccccc1	14.6 µM [falling, single point]	–
O=C(Cc1ccccc1[N+](=O)[O-])NCc1ccc(Cl)cc1Cl	14.6 µM [rising, partial curve, poor fit]	–
Cc1ccccc1N1C(=O)CSC1=C(C#N)C#N	15.8 µM [falling, partial curve]	–
Cc1cc(/C=N/n2cnnc2)c(C)n1-c1ccc(OCc2ccc(F)cc2)cc1	8.91 µM [falling, partial curve, poor fit]	–
Cc1csc(SCC(=O)Nc2ccccn2)n1	7.31 µM [falling, partial curve, poor fit]	–
S=c1[nH]nc(-c2ccco2)n1/N=C/C=C/c1ccccc1	35.5 µM [falling, single point]	–
Cc1ccccc1C(=O)NC1CC(C)(C)NC(C)(C)C1	0.82 µM [falling, full curve, poor fit]	–
Cc1cc(C(=O)N/N=C2\CCCc3ccccc32)c(C)o1	9.2 µM [falling, partial curve]	–
CCOC(=O)c1ccc(N2CN=C3SCC(=O)N3C2)cc1	12.6 µM [falling, partial curve, poor fit]	–
CC(C)C(NS(=O)(=O)c1c(Cl)cccc1Cl)C(=O)OCC(=O)c1c[nH]c2ccccc12 (stereo not drawn)	20.6 µM [falling, single point]	–
Cc1ncc(CSc2ccc(Cl)cc2)c(CO)c1O	3.55 µM [rising, single point]	–
O=C(c1cccc(Cl)c1)N1CCCC(c2ccc(Cl)cc2)=N1	8.91 µM [falling, partial curve]	–

Of the compounds above, these contain a CF3 group.
SMILES	AC50 [1]	AC50 [2]
CCOC(=O)C(NCc1ccco1)(NC(=O)c1ccccc1)C(F)(F)F (stereo not drawn)	29.1 µM [rising, single point]	–
Cc1ccc(S(=O)(=O)Nc2cc(=O)[nH]c(SCC(=O)Nc3cccc(C(F)(F)F)c3)n2)cc1	20 µM [rising, single point]	–

Further results follow.

SMILES	AC50 [1]	AC50 [2]
CCC1SC2=NC(C)=C(C(=O)OCCOC)C(c3ccc(C(=O)OC)cc3)N2C1=O (stereo not drawn)	35.5 µM [rising, single point]	–
COCCNC(=S)N1CCC(c2nc(-c3ccc(N(C)C)cc3)no2)CC1	35.5 µM [falling, partial curve, poor fit]	–
COc1ccc2[nH]c3c(=O)n(CCc4ccccc4)cnc3c2c1	3.98 µM [falling, partial curve, poor fit]	–
COC(=O)c1c(NC(=O)CSc2nnc(-c3cccnc3)n2Cc2ccco2)sc(C)c1C	20.6 µM [falling, single point]	–
Cc1cc(C(=O)CSc2nnc(Nc3ccccc3)s2)c(C)n1CC1CCCO1 (stereo not drawn)	1 µM [rising, full curve, poor fit]	–
COc1ccc(/C=C(\C#N)C(=O)NC(C)c2ccccc2)cc1O (stereo not drawn)	35.5 µM [falling, single point]	–
CCOC(=O)/C(Sc1nc(-c2ccccc2)cc(-c2ccccc2)c1C#N)=C(\C)O	35.5 µM [rising, single point]	–
Cc1nc(CSc2nc3[nH]ncc3c(=O)n2-c2ccccc2)cs1	2.06 µM [falling, partial curve, poor fit]	–
CCOC(=O)c1cnc2ccc(OCC)cc2c1N1CCN(c2ccccc2)CC1	15.8 µM [falling, partial curve, poor fit]	–
CCOC(=O)C1=C(C)NC(=O)NC1c1ccc(-c2ccc(Cl)cc2)o1 (stereo not drawn)	17.8 µM [falling, partial curve, poor fit]	–
O=C(COC(=O)c1cccs1)Nc1nnc(-c2ccccc2)o1	18.4 µM [falling, partial curve]	–
CC(C)c1ccc(Nc2nc(CC(=O)O)cs2)cc1	3.55 µM [rising, full curve]	–
N#Cc1ccccc1-n1c(N)c(C(=O)N2CCCC2)sc1=S	3.55 µM [falling, partial curve, poor fit]	–
COC(=O)c1ccc(CSc2nnnn2Cc2ccccc2)cc1	0.326 µM [rising, full curve, poor fit]	–
COc1ccc(N=Nc2n(C)c3ccccc3[n+]2C)cc1	12.6 µM [falling, partial curve]	15.8 µM [falling, single point]
CCOc1ccccc1Oc1ncnc2c1oc1ccccc12	35.5 µM [rising, single point]	–
c1csc(C2=NNC(=NC3CCCCC3)SC2)c1	15.8 µM [falling, single point]	–
O=C(O)c1cccc(-n2cccc2/C=C\[N+](=O)[O-])c1	14.1 µM [falling, single point]	12.6 µM [rising, single point]
Cn1ncc2c(Nc3ccc([N+](=O)[O-])cc3)nc(Cl)nc21	11.2 µM [rising, partial curve]	–
COc1ccc(C(C(=O)NC(C)(C)C)N(Cc2ccco2)C(=O)CCC(=O)Nc2cc(C)on2)cc1 (stereo not drawn)	32.6 µM [rising, single point]	–
COC(=O)C1=CN(Cc2ccc(OC)c(OC)c2)C=C(C(=O)OC)C1c1ccc(O)cc1	0.631 µM [rising, full curve, poor fit]	–
O=C(c1ccco1)N1CCN(c2ncnc3c2[nH]c2ccc(Cl)cc23)CC1	25.9 µM [falling, partial curve, poor fit]	–
